Consider one compound from article PMC5793130, “The Peptide PnPP-19, a Spider Toxin Derivative, Activates μ-Opioid Receptors and Modulates Calcium Channels” (Toxins, 2018).

This assay has as its system calcium channels in dorsal root ganglion (DRG) neurons. The assay is classed as cell-based, rat.

For `CN1CC[C@]23c4c5ccc(O)c4O[C@H]2[C@@H](O)C=C[C@H]3[C@H]1C5` [morphine], the “effect on calcium current density” value is on record as “induced inhibition of calcium channels”.
